# Experimental data published in patent US12324927B2, “Methods and systems for photodynamic therapy calculations” (THE TRUSTEES OF THE UNIVERSITY OF PENNSYLVANIA, priority 2018, dated 2025).
# Assay: Photofrin concentration and PDT dose at pleural cavity sites measured by fluorescence with 4-channel PDT dose dosimeter during Photofrin-mediated pleural PDT
# Format: in vivo, human
# Protocol: The patients in this study were enrolled in a Phase II randomized clinical trial of Photofrin-mediated PDT for pleural mesothelioma treatment. Having given informed consent, they were administered Photofrin (Pinnacle Biologics, Chicago, IL, USA) at 2 mg kg^−1 of body weight as an intravenous infusion 24 h prior to intra-operative PDT. PDT was performed in the operating room, immediately following radical pleurectomy and debulking of tumor. PDT treatment was performed with 632 nm light provided by a KTP-pumped dye laser (model 630 XP, Laserscope, Inc., San Jose, CA, USA) to a total fluence of 60 J cm^−2. Light was delivered to the pleural cavity via an optical fiber inserted into modified endotracheal tube filled with 0.1% intralipid to produce an extended isotropic light source. The pleural cavity was filled with 0.01% intralipid solution during PDT treatment. As the intralipid solution became contaminated with blood as observed by the treating physician, it was repeatedly removed by suction pump and replaced with fresh solution to minimize light absorption by hemoglobin. The light source was circulated around in the lung cavity by the physician during the PDT. The instantaneous light fluence rate and the cumulative light dose were monitored continuously using 8 isotropic detectors (Medlight, Switzerland) sutured to 8 strategic locations within the pleural cavity wall. […] Light fluence rate at surface is measured directly with an isotropic detector placed on the surface. The measured light fluence rate is not reflective of intra-tissue light fluence rate, which may be higher or lower than the value on the tissue surface depending on the tissue optical properties. Fluorescence collected by the fibers was collimated and passed through long pass filters (Semrock, Inc., Rochester, NY, USA) to block the treatment light before the transmitted fluorescence was recorded by the spectrometers, whereas no filtration was required for the treatment-light signal in the other arm of the bifurcated fibers. […] In this study, Channels 1 to 4 are used to measure fluence rate of the treatment light and Photofrin fluorescence concurrently, while Channel 9 to 12 are used to measure light fluence rate only.
# Diffuse reflectance measurements were acquired before and after PDT treatment using a specially designed fiber optic-based contact probe comprising (e.g., or consisting of) one source fiber, coupled to an air-cooled quartz-tungsten-halogen (QTH) lamp (Avalight HAL-S, Avantes, Inc., Louisville, CO, USA), and 9 detection fibers spaced at distances from 1.4 to 8.7 mm from the source. […] Background signal was measured in the same tissue with the white light source turned off, and then subtracted from each measurement. […]
# [1] = 22 sites in pleural cavity of 8 patients
# [2] = 22 sites, 8 patients, 60 J cm^−2
substance,measurement,setting,value
Photofrin,difference of PDT doses inter-patient,[1],8.3 times
same,difference of PDT doses intra-patient,[1],2.9 times
same,mean PDT dose of all sites,[2],390.1±198.9 MJ cm^−2
same,median PDT dose of all sites,[2],333.6±198.9 μMJ cm^−2
